Measured values: the supplement of paper PMC6411743
± gives the standard deviation of the averaged measurements. The entries are a selection whose mix differs from that of the whole data set.

What was measured:
Test in all cases: NP40-soluble protein abundance relative to vehicle (solubility fold change) (ratio); higher = more soluble protein in presence of ATP
[1] = biological target: T1, UniProt Q8N0Y2 and related entries
T1 sequence (whole entry): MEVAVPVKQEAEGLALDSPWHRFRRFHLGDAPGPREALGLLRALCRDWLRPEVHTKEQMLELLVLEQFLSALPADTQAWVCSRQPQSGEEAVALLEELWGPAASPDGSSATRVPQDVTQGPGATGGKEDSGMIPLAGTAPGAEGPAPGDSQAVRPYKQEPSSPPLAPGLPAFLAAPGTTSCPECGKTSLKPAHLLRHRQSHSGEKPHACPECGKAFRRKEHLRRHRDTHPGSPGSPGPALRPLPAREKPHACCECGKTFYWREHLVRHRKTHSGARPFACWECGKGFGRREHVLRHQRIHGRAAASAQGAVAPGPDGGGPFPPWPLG
In short: (§1)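 Across three independent experiments, values are fold changes against the detergent-processed vehicle for each replicate, based on vsn-normalised intensities. The samples were Jurkat crude lysate treated with eight concentrations (0.1 to 10 mM) for 10 min at room temperature and then 3 min at 37 °C. Lysate was solubilised with 0.8% NP40 and benzonase, ultracentrifuged, and the supernatant analysed by TMT-labelled LC-MS/MS.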

UniProt Q8N0Z3 = biological target: T2, UniProt Q8N0Z3
T2 sequence (whole entry): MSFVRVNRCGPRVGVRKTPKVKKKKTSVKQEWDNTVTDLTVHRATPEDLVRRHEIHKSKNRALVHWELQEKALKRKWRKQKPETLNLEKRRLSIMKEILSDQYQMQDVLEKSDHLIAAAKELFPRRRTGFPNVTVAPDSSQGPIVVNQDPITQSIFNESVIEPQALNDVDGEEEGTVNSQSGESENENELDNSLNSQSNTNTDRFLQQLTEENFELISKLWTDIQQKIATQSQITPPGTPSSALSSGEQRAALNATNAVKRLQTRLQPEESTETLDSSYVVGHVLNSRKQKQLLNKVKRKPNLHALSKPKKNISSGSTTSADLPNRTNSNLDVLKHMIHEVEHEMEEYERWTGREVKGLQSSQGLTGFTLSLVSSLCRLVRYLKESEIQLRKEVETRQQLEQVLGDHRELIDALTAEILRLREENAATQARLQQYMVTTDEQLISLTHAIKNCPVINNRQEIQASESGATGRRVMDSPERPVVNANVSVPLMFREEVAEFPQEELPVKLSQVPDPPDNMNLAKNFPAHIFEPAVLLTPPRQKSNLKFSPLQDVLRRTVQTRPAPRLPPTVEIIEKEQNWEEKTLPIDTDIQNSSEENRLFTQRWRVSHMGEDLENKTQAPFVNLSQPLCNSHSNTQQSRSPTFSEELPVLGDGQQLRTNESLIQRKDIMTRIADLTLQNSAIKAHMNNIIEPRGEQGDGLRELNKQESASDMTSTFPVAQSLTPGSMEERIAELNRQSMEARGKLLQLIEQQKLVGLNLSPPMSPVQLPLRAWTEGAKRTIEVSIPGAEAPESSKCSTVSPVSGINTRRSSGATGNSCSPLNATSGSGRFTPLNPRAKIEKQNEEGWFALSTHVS
In short: as §1

[2] = biological target: T3, UniProt Q8N4Q1 and related entries
T3 sequence (whole entry): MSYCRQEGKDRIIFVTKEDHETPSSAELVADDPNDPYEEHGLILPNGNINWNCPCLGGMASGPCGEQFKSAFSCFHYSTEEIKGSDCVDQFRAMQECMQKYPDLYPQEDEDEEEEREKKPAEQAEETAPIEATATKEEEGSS
In short: as §1

UniProt Q8N5L8 = biological target: T4, UniProt Q8N5L8
T4 sequence (whole entry): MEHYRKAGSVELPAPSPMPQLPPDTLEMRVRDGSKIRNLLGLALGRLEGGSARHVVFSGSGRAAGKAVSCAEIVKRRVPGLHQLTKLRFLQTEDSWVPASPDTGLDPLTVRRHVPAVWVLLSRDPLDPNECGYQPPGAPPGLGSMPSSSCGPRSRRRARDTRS
In short: as §1

[3] = biological target: T5, UniProt Q8N5Y8 and related entries
T5 sequence (whole entry): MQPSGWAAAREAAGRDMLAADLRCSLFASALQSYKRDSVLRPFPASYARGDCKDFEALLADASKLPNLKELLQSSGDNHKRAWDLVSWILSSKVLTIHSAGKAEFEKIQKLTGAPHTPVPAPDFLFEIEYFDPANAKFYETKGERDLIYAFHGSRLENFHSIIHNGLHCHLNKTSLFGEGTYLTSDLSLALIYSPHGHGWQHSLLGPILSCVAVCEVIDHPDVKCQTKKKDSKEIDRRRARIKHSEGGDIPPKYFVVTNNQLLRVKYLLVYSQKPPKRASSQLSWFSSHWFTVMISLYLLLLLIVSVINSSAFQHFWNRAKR
In short: as §1

[4] = biological target: T6, UniProt Q8N8K9 and related entries
T6 sequence (whole entry): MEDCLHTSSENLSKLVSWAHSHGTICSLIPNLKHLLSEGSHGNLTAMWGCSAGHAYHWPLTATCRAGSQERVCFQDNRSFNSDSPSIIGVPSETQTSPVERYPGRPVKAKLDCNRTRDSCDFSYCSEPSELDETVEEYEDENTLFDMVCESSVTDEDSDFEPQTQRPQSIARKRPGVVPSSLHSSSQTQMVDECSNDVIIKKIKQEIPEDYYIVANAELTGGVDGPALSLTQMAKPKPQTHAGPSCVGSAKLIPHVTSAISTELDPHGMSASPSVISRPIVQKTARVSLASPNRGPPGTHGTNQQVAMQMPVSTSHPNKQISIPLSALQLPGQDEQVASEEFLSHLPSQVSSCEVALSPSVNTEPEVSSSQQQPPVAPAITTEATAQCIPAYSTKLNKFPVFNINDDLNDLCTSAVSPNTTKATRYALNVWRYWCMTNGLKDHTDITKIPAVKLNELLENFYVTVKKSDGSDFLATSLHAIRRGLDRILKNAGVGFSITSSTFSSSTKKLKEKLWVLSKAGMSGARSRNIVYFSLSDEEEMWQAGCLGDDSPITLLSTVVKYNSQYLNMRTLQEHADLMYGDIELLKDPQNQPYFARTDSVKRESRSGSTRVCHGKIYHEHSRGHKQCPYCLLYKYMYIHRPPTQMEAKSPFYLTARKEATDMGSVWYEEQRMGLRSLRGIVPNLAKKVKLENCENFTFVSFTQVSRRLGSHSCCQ
In short: as §1

Nc1ncnc2c1ncn2[C@@H]1O[C@H](COP(=O)(O)OP(=O)(O)OP(=O)(O)O)[C@@H](O)[C@H]1O [adenosine triphosphate]
NP40-soluble protein abundance ([1]; concentration: 6mM): 1.13 ± 0.04
NP40-soluble protein abundance ([1]; concentration: 8mM): 1.04 ± 0.059
NP40-soluble protein abundance ([1]; concentration: 10mM): 1.05 ± 0.055
NP40-soluble protein abundance (UniProt Q8N0Z3; concentration: 1mM): 1.02 ± 0.08
NP40-soluble protein abundance (UniProt Q8N0Z3; concentration: 2mM): 0.991 ± 0.032
NP40-soluble protein abundance (UniProt Q8N0Z3; concentration: 4mM): 1.01 ± 0.061
NP40-soluble protein abundance (UniProt Q8N0Z3; concentration: 6mM): 1.05 ± 0.088
NP40-soluble protein abundance (UniProt Q8N0Z3; concentration: 8mM): 0.984 ± 0.035
NP40-soluble protein abundance (UniProt Q8N0Z3; concentration: 10mM): 1 ± 0.044
NP40-soluble protein abundance ([2]; concentration: 1mM): 1.02 ± 0.15
NP40-soluble protein abundance ([2]; concentration: 2mM): 0.966 ± 0.063
NP40-soluble protein abundance ([2]; concentration: 4mM): 1.01 ± 0.029
NP40-soluble protein abundance ([2]; concentration: 6mM): 1.07 ± 0.15
NP40-soluble protein abundance ([2]; concentration: 8mM): 0.93 ± 0.043
NP40-soluble protein abundance ([2]; concentration: 10mM): 0.892 ± 0.079
NP40-soluble protein abundance (UniProt Q8N5L8; concentration: 1mM): 0.989 ± 0.082
NP40-soluble protein abundance (UniProt Q8N5L8; concentration: 2mM): 0.995 ± 0.0069
NP40-soluble protein abundance (UniProt Q8N5L8; concentration: 4mM): 1.04 ± 0.038
NP40-soluble protein abundance (UniProt Q8N5L8; concentration: 6mM): 1.03 ± 0.071
NP40-soluble protein abundance (UniProt Q8N5L8; concentration: 8mM): 1.02 ± 0.048
NP40-soluble protein abundance (UniProt Q8N5L8; concentration: 10mM): 1.045 ± 0.0075
NP40-soluble protein abundance ([3]; concentration: 1mM): 0.984 ± 0.062
NP40-soluble protein abundance ([3]; concentration: 2mM): 1.02 ± 0.037
NP40-soluble protein abundance ([3]; concentration: 4mM): 0.96 ± 0.025
NP40-soluble protein abundance ([3]; concentration: 6mM): 0.978 ± 0.029
NP40-soluble protein abundance ([3]; concentration: 8mM): 0.981 ± 0.054
NP40-soluble protein abundance ([3]; concentration: 10mM): 0.966 ± 0.013
NP40-soluble protein abundance ([4]; concentration: 1mM): 1.01 ± 0.068
NP40-soluble protein abundance ([4]; concentration: 2mM): 0.996 ± 0.06
NP40-soluble protein abundance ([4]; concentration: 4mM): 1.05 ± 0.088
NP40-soluble protein abundance ([4]; concentration: 6mM): 0.979 ± 0.11
